Test system: HepG2
Assay: Cytotoxicity against human HepG2 cells assessed as growth inhibition
Format: ADME, cell-based
In short: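 HepG2 cells exposed to compound; viability or inhibition rate measured, with paclitaxel as positive control.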

In the case of `CC(=O)O[C@H]1C(=O)[C@@]2(C)[C@H]([C@H](OC(=O)c3ccccc3)[C@]3(O)C[C@H](OC(=O)[C@H](O)[C@@H](NC(=O)c4ccccc4)c4ccccc4)C(C)=C1C3(C)C)[C@]1(OC(C)=O)CO[C@@H]1C[C@@H]2O` [PACLITAXEL], the IC50 is reported as 12.6 nM.

— ChEMBL document CHEMBL4732114, “Design and structural optimization of novel 2H-benzo[h]chromene derivatives that target AcrB and reverse bacterial multidrug resistance” (Eur J Med Chem, 2021)
